Data reported in article PMC10620819.
Results are given in words; binding and its absence hold for the method and conditions named. In cells and extracts the contact can be indirect. Some results given as binding are weak or reduced against the parent protein; the word gives no strength. Tags and fused reporters may be left off the sequences shown.

T1: Breast Cancer Antiestrogen Resistance 1 (BCAR1), Flag-tagged (UniProt P56945)
T1 sequence: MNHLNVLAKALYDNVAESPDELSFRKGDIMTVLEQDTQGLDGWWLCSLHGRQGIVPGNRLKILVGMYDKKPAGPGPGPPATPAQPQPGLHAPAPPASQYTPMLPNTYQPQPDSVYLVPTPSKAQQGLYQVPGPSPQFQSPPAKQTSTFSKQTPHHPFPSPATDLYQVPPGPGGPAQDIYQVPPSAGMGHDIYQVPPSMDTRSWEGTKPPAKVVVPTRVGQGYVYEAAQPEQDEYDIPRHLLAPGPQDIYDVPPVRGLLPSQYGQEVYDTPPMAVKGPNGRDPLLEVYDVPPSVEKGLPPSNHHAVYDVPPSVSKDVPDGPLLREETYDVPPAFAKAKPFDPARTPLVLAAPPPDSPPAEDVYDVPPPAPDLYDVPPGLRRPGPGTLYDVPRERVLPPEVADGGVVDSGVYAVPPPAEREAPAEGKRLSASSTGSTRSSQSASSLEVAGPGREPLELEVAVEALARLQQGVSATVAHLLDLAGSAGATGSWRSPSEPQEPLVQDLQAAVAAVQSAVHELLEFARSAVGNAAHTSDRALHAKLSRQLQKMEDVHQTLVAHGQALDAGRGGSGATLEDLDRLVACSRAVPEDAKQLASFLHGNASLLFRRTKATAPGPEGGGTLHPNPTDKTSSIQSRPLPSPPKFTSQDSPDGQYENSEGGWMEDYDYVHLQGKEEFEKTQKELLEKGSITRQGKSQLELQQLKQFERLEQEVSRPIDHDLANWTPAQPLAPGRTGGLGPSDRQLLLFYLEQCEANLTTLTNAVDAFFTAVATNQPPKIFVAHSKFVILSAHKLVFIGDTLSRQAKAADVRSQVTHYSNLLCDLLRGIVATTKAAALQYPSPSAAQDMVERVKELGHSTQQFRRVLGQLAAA

T2: Flotillin-1 (FLOT1), HA-tagged (UniProt O75955)
T2 sequence: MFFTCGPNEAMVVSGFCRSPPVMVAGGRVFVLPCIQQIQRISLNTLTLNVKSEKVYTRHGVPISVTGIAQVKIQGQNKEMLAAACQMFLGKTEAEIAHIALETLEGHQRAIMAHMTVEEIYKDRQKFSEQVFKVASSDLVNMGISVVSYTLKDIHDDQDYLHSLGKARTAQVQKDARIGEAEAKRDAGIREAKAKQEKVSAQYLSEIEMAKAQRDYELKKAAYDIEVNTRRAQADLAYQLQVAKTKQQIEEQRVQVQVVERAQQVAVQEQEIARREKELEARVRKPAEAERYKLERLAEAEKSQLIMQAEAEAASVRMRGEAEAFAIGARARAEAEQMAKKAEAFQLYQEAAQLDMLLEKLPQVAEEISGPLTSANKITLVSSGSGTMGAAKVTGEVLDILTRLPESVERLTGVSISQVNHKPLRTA

B1: Flotillin-1 (FLOT1), HA-tagged (protein, UniProt O75955 1-427)
chain: MFFTCGPNEAMVVSGFCRSPPVMVAGGRVFVLPCIQQIQRISLNTLTLNVKSEKVYTRHGVPISVTGIAQVKIQGQNKEMLAAACQMFLGKTEAEIAHIALETLEGHQRAIMAHMTVEEIYKDRQKFSEQVFKVASSDLVNMGISVVSYTLKDIHDDQDYLHSLGKARTAQVQKDARIGEAEAKRDAGIREAKAKQEKVSAQYLSEIEMAKAQRDYELKKAAYDIEVNTRRAQADLAYQLQVAKTKQQIEEQRVQVQVVERAQQVAVQEQEIARREKELEARVRKPAEAERYKLERLAEAEKSQLIMQAEAEAASVRMRGEAEAFAIGARARAEAEQMAKKAEAFQLYQEAAQLDMLLEKLPQVAEEISGPLTSANKITLVSSGSGTMGAAKVTGEVLDILTRLPESVERLTGVSISQVNHKPLRTA
B2: Breast Cancer Antiestrogen Resistance 1 (BCAR1), Flag-tagged (protein, UniProt P56945 1-870)
chain: MNHLNVLAKALYDNVAESPDELSFRKGDIMTVLEQDTQGLDGWWLCSLHGRQGIVPGNRLKILVGMYDKKPAGPGPGPPATPAQPQPGLHAPAPPASQYTPMLPNTYQPQPDSVYLVPTPSKAQQGLYQVPGPSPQFQSPPAKQTSTFSKQTPHHPFPSPATDLYQVPPGPGGPAQDIYQVPPSAGMGHDIYQVPPSMDTRSWEGTKPPAKVVVPTRVGQGYVYEAAQPEQDEYDIPRHLLAPGPQDIYDVPPVRGLLPSQYGQEVYDTPPMAVKGPNGRDPLLEVYDVPPSVEKGLPPSNHHAVYDVPPSVSKDVPDGPLLREETYDVPPAFAKAKPFDPARTPLVLAAPPPDSPPAEDVYDVPPPAPDLYDVPPGLRRPGPGTLYDVPRERVLPPEVADGGVVDSGVYAVPPPAEREAPAEGKRLSASSTGSTRSSQSASSLEVAGPGREPLELEVAVEALARLQQGVSATVAHLLDLAGSAGATGSWRSPSEPQEPLVQDLQAAVAAVQSAVHELLEFARSAVGNAAHTSDRALHAKLSRQLQKMEDVHQTLVAHGQALDAGRGGSGATLEDLDRLVACSRAVPEDAKQLASFLHGNASLLFRRTKATAPGPEGGGTLHPNPTDKTSSIQSRPLPSPPKFTSQDSPDGQYENSEGGWMEDYDYVHLQGKEEFEKTQKELLEKGSITRQGKSQLELQQLKQFERLEQEVSRPIDHDLANWTPAQPLAPGRTGGLGPSDRQLLLFYLEQCEANLTTLTNAVDAFFTAVATNQPPKIFVAHSKFVILSAHKLVFIGDTLSRQAKAADVRSQVTHYSNLLCDLLRGIVATTKAAALQYPSPSAAQDMVERVKELGHSTQQFRRVLGQLAAA

Tests used:
[1] = molecular target: T1, Breast Cancer Antiestrogen Resistance 1 (BCAR1), Flag-tagged; test: co-IP; whole lysates of AGS or HGC-27 cells; antibodies against HA tag or DYKDDDDK tag or IgG control at 4 °C overnight; Protein A/G PLUS agarose; PBST washes; western blotting
[2] = molecular target: T2, Flotillin-1 (FLOT1), HA-tagged; test: as above

binding [1] | binding [2] | Binder
binds |  | B1
 | binds | B2
